We go through eleven sequences from paper PMC8384837.

Holding throughout (details): yeast three-hybrid, YBZ-1, SC-Leu-His + 0.5 mM 3-AT, 4 days
Test [1] concerns the target T1, PUM1 PUF domain R1-QFR R2-VFQ R7-NPG S863Q + R864F + Q867R + N899V + Y900F + S1079N + N1080P + E1083G (UniProt Q14671).
T1 sequence: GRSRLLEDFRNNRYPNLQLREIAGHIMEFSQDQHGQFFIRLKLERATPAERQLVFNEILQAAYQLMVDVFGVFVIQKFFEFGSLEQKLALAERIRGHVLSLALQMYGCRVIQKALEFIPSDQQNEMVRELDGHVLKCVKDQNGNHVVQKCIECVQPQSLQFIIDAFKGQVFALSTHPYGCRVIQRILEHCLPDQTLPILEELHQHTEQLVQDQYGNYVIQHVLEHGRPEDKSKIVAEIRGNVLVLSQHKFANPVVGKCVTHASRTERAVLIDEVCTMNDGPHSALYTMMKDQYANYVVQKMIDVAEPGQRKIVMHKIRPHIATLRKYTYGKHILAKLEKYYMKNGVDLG

Test [2] concerns the target T2, PUM1 PUF domain R2-VFQ R3-THE R4-TFR N899V + Y900F + C935T + R936H + Q939E + N971T + H972F + Q975R (UniProt Q14671).
T2 sequence: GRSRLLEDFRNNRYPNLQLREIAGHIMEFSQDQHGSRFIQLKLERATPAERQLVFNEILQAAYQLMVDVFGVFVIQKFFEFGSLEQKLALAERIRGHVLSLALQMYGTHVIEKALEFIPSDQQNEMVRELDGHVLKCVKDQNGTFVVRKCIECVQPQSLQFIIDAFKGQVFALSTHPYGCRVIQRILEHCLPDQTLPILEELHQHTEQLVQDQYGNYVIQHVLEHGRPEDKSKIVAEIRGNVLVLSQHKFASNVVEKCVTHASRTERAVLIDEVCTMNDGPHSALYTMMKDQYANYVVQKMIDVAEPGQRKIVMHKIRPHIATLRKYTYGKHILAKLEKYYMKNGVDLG

The target in test [3] is T3, PUM1 PUF domain R3-THE R4-TFR C935T + R936H + Q939E + N971T + H972F + Q975R (UniProt Q14671).
T3 sequence: T2 sequence with V72N, F73Y

Test [4] has as its target T4, PUM1 PUF domain R3-THE R4-TFR R7-NPG C935T + R936H + Q939E + N971T + H972F + Q975R + S1079N + N1080P + E1083G (Homo sapiens) (UniProt Q14671).
T4 sequence: T2 sequence with V72N, F73Y, S252N, N253P, E256G

Test [5] has as its target T5, PUM1 PUF domain R5-PHQ R6-SWD C1007P + R1008H + N1043S + Y1044W + Q1047D (UniProt Q14671).
T5 sequence: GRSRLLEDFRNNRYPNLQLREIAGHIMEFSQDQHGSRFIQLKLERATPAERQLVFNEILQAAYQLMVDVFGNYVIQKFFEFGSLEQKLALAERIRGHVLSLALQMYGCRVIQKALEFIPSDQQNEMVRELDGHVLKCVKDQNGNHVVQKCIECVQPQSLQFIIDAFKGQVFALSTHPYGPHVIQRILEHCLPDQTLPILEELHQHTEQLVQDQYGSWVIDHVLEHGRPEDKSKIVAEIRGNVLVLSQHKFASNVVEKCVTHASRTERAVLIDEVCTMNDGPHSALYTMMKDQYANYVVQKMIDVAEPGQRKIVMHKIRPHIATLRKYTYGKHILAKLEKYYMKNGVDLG

Positions count from the first letter of the chain named. The list shows a part of the results. For some assays here: At the low end of the ranking the order means little. For some assays here: The exact form of the protein is not confirmed. A value given as a limit tells only on which side of the number the result lay.

For “GGCUAGAACUAGUGGAUCCCCCGGCGCCCGGCGGCUCGAGCCCGGGUAAGUUCACAUAGUCUGCAUGCCGCCGGGCGCCAUGCCUGCAGGUCGACUCUAGAAAACAUG”, the binding signal (log2 enrichment (interaction score)) in test [1] was -6.58; in test [2] it was -5.64; in test [3], -6.28; in test [4] it was less than -1.56; in test [5], -8.32.

As for “GGCUAGAACUAGUGGAUCCCCCGGCGCCCGGCGGCUCGAGCCCGGGUAAGUGUUAGCCGUCUGCAUGCCGCCGGGCGCCAUGCCUGCAGGUCGACUCUAGAAAACAUG”, the binding signal (log2 enrichment (interaction score)) in test [1] is -5.92; in test [2], -5.13; in test [3], less than -6.52; in test [4] it was -1.64.

As for “GGCUAGAACUAGUGGAUCCCCCGGCGCCCGGCGGCUCGAGCCCGGGUAAGCGUAGGUUGUCUGCAUGCCGCCGGGCGCCAUGCCUGCAGGUCGACUCUAGAAAACAUG”, the binding signal (log2 enrichment (interaction score)) in test [1] is -4.83; in test [2], -5.74; in test [3] it was -6.64; in test [4], -1.89.

On to “GGCUAGAACUAGUGGAUCCCCCGGCGCCCGGCGGCUCGAGCCCGGGUAAGUACAAGAAGUCUGCAUGCCGCCGGGCGCCAUGCCUGCAGGUCGACUCUAGAAAACAUG”, for which the binding signal (log2 enrichment (interaction score)) in test [1] is -6.21; in test [2] it was -5.01; in test [3], less than -7.16; in test [4] it was -1.46; in test [5] it was less than -7.06.

As for “GGCUAGAACUAGUGGAUCCCCCGGCGCCCGGCGGCUCGAGCCCGGGUAAGUUGACGAUGUCUGCAUGCCGCCGGGCGCCAUGCCUGCAGGUCGACUCUAGAAAACAUG”, the binding signal (log2 enrichment (interaction score)) is -5 in test [1], -5.8 in test [2] and less than -7.72 in test [3].

Consider “GGCUAGAACUAGUGGAUCCCCCGGCGCCCGGCGGCUCGAGCCCGGGUAAGUUUAGAAAGUCUGCAUGCCGCCGGGCGCCAUGCCUGCAGGUCGACUCUAGAAAACAUG”, for which the values for the binding signal (log2 enrichment (interaction score)) in test [1], in test [2] and in test [3] were -6.33, -5.74 and -7.55, respectively.

As to “GGCUAGAACUAGUGGAUCCCCCGGCGCCCGGCGGCUCGAGCCCGGGUAAGAUUAGGAUGUCUGCAUGCCGCCGGGCGCCAUGCCUGCAGGUCGACUCUAGAAAACAUG”, the binding signal (log2 enrichment (interaction score)) in test [1] was -6.66; in test [2], -5.2; in test [3], -6.88.

On to “GGCUAGAACUAGUGGAUCCCCCGGCGCCCGGCGGCUCGAGCCCGGGUAAGUGGACAUAGUCUGCAUGCCGCCGGGCGCCAUGCCUGCAGGUCGACUCUAGAAAACAUG”, for which the binding signal (log2 enrichment (interaction score)) in test [1] is -4.47; in test [2] it was -5.35; in test [3], -7.4; in test [4] it was -1.24; in test [5], -7.44.

In the case of “GGCUAGAACUAGUGGAUCCCCCGGCGCCCGGCGGCUCGAGCCCGGGUAAGUUUACGGCGUCUGCAUGCCGCCGGGCGCCAUGCCUGCAGGUCGACUCUAGAAAACAUG”, the binding signal (log2 enrichment (interaction score)) in test [1] was less than -6.43; in test [2], -4.4; in test [3], -6.39; in test [4] it was -0.32.

Consider “GGCUAGAACUAGUGGAUCCCCCGGCGCCCGGCGGCUCGAGCCCGGGUAAGUGUAAUUAGUCUGCAUGCCGCCGGGCGCCAUGCCUGCAGGUCGACUCUAGAAAACAUG”, for which the binding signal (log2 enrichment (interaction score)) is -5.87 in test [1], -6.14 in test [2], -4.04 in test [3] and -7.11 in test [5].

As for “GGCUAGAACUAGUGGAUCCCCCGGCGCCCGGCGGCUCGAGCCCGGGUAAGUUUAUACAGUCUGCAUGCCGCCGGGCGCCAUGCCUGCAGGUCGACUCUAGAAAACAUG”, the binding signal (log2 enrichment (interaction score)) in test [1] is -5.53; in test [2], -5.03; in test [3] it was -5.8; in test [4], -1.43.
